Reference: patent publication US20130184211A1
These are yes or no findings as the source states them, for the method shown. A result given as binding can be weak or reduced; the word gives no strength.

Sequences of proteins named here, by UniProt entry; tags and fusion partners are left off. A change or cut given only in a name is not applied to a line headed by its entry.
UniProt Q9NSA1: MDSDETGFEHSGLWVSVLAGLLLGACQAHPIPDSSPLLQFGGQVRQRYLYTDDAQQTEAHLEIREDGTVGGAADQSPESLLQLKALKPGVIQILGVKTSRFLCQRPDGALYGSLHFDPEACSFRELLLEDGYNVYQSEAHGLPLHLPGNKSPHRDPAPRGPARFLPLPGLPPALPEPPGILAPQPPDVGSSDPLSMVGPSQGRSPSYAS
UniProt O95750: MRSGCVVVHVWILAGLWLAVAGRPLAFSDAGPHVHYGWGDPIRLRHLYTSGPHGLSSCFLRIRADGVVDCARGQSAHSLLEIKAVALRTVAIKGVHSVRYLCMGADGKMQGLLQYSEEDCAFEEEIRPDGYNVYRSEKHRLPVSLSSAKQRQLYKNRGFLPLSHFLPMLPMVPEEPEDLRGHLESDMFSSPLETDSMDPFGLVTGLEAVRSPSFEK
UniProt Q99N32: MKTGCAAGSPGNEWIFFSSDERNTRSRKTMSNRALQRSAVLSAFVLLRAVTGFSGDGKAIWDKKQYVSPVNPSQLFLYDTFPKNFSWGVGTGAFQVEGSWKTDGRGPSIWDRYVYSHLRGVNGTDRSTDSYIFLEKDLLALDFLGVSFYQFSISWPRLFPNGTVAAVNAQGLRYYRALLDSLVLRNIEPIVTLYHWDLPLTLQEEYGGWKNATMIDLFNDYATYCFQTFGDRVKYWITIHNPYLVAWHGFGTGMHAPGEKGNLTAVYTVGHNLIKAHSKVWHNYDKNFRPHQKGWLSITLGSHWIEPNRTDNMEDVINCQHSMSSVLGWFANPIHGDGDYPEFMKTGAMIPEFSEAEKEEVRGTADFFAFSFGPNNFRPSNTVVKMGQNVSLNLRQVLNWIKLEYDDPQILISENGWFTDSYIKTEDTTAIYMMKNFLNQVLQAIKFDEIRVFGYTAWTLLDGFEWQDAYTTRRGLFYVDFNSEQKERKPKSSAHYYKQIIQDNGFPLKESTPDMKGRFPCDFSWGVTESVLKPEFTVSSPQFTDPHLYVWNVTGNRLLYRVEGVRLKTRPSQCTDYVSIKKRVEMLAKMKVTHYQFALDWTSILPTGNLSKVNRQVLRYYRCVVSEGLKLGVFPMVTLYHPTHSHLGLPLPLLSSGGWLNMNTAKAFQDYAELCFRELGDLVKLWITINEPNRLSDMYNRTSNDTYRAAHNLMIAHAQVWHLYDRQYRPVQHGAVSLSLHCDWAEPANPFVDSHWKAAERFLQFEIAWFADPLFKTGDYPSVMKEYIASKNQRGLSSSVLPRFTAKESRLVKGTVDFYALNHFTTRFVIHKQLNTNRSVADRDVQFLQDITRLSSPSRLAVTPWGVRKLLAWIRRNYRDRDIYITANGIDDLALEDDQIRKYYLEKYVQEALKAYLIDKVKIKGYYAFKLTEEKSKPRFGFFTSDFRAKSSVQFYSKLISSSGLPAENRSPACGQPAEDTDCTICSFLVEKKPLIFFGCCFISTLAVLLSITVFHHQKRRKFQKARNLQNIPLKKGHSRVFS

Columns and labels:
[1] = target: human FGF21 (H29 to S209), FGF21^29-209 (human) (UniProt Q9NSA1); assay: SPR; FGF21^29-209 immobilized, FGFR1c-βKlotho complex injected with FGF23^180-251 (10:1)
[2] = target: human FGF21 (H29 to S209), FGF21^29-209 (human) (UniProt Q9NSA1); assay: SPR, FGF21^29-209 immobilized, 15 nM FGFR1c-βKlotho complex injected
[3] = target: human FGF19 (R23 to K216), FGF19^23-216 (human) (UniProt O95750); assay: SPR; FGF19^23-216 immobilized, FGFR1c-βKlotho complex injected with FGF23^180-251 (10:1)
[4] = target: human FGF19 (R23 to K216), FGF19^23-216 (human) (UniProt O95750); assay: SPR, FGF19^23-216 immobilized, 15 nM FGFR1c-βKlotho complex injected

- binding [1]: binds
- binding [2]: binds
- binding [3]: binds
- binding [4]: binds
Substance: 1:1 complex of the ectodomains of FGFR1c and βKlotho (from UniProt Q99N32 53-995) (receptor)
